Assay results published in patent publication US20040038884A1, “Treatment of tinitus” (priority 2003, published 2004).
For at least one compound, name, drawing or mass did not settle the structure.

Amino acid sequences for entries named in this document (tags omitted). Residues count along the entry.
UniProt Q9JLB5, 25-447: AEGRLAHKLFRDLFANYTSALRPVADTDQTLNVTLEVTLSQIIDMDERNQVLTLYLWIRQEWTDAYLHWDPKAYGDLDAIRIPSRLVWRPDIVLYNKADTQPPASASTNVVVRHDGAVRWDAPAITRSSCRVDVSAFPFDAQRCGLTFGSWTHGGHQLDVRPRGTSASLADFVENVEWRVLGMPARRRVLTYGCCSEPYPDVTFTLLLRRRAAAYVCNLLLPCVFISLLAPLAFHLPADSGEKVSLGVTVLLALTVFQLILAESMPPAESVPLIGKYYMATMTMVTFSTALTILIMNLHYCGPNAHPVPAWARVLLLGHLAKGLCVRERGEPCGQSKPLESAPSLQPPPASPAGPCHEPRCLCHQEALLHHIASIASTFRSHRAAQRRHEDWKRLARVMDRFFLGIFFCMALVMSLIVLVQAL
UniProt P43144, 26-479: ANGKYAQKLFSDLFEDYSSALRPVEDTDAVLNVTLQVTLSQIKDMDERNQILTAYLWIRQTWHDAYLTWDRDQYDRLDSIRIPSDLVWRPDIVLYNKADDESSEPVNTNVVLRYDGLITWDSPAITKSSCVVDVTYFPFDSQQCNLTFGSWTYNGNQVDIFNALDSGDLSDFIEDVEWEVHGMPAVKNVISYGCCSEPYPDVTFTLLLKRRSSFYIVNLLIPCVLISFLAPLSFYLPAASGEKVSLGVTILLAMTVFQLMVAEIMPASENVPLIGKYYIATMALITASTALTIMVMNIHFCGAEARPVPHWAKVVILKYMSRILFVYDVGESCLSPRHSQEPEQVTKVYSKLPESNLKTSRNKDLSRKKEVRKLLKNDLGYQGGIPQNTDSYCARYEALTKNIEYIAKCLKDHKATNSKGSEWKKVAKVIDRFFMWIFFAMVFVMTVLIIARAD

Tests used:
Format in all cases: cell-based
α10 nAChR subunit = biological target: T1, α10 nAChR subunit (Rattus norvegicus, UniProt Q9JLB5)
T1 construct: expressed in transfected cells; host or cells: Xenopus oocytes injected with α10 mRNA (pGEM-HE-nAChR-α10)

α9/α10 nAChR = biological target: T2, α9/α10 nAChR (Rattus norvegicus, UniProt P43144+Q9JLB5); conditions: α9 and α10 coexpressed; application of ACh, at −80 mV
T2 construct: expressed in transfected cells; host or cells: Xenopus laevis oocytes injected with in vitro transcribed capped mRNA

homomeric α9 nAChR = biological target: T3, homomeric α9 nAChR (Rattus norvegicus, UniProt P43144)
T3 construct: expressed in transfected cells; host or cells: Xenopus oocytes injected with α9 mRNA

SMILES: CC(=O)OCC[N+](C)(C)C [ACh, acetylcholine]
- ACh-induced current (α10 nAChR subunit): No currents exceeding background levels
- ACh-induced inward current, peak amplitude (α9/α10 nAChR): up to −35 μA
- ACh-induced inward current (homomeric α9 nAChR): 9.3 ± 5.0 nA
